Here are results for 2 substances from publication PMC5299006.

By UniProt entry, the sequences of proteins in these tests, tags left out. Where a name states a change or a piece, a line headed by the entry shows the natural chain unless it says otherwise.
UniProt Q3Y4G8: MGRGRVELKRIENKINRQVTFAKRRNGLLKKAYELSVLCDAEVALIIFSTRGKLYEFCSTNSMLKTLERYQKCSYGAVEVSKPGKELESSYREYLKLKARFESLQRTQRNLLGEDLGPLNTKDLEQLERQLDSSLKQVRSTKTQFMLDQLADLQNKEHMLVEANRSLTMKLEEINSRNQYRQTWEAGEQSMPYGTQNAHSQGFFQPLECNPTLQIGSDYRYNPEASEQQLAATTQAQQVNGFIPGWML
UniProt Q5GMP6: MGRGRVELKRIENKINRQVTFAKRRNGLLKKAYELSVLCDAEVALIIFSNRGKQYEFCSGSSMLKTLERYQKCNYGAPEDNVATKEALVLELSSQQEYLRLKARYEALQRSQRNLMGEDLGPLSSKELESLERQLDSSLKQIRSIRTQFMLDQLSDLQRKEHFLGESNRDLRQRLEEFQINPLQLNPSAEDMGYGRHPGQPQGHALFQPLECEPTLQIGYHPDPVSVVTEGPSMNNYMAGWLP

No constants are given. Whether binding was seen depends on the method and setting. Binding seen in cells or lysates may run through a third protein. Binding can be weak; no strength is given.

The target of this assay is GmAGL1 fused to a split-YFP fragment for BiFC (GmAGL1-N-YFP) (soybean (Glycine max)). In words: split reporter; BiFC with split YFP (N-YFP 1-155, C-YFP 156-239); plasmids co-bombarded 1:1 into onion epidermal cells; confocal imaging two days after bombardment.

With “GmSEP1 fused to C-YFP for BiFC (GmSEP1-C-YFP) (from UniProt Q3Y4G8)”, the binding entry is listed as “binds”.

With “GmSEP3 fused to C-YFP for BiFC (GmSEP3-C-YFP) (from UniProt Q5GMP6)”, the binding result is “binds”.
